From the supplement of paper PMC6411743
± gives the standard deviation of the averaged measurements. This is one part of the list.

By UniProt entry, the sequences of proteins in these tests, tags left out. Where a name states a change or a piece, a line headed by the entry shows the natural chain unless it says otherwise.
UniProt Q9UQR1: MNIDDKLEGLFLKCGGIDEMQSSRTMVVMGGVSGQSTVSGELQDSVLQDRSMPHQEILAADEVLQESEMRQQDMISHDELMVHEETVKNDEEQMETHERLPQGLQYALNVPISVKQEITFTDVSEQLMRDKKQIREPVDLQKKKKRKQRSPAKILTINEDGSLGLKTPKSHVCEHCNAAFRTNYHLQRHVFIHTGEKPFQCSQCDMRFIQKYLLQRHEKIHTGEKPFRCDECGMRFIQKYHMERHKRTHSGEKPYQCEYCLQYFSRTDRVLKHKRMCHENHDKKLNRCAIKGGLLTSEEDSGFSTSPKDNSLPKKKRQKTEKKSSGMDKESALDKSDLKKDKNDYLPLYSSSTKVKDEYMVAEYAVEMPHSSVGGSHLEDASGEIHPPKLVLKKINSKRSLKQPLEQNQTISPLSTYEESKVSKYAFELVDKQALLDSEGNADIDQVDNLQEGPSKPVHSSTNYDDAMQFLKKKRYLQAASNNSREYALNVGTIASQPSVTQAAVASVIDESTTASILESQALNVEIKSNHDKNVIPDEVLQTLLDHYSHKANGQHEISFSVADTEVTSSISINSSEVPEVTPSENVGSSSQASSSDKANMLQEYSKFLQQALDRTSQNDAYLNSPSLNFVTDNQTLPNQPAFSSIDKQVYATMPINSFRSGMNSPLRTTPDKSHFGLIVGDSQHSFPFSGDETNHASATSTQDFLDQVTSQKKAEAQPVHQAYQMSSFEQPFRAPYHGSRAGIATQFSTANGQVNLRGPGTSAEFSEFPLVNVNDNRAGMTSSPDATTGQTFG
UniProt Q9Y6N5: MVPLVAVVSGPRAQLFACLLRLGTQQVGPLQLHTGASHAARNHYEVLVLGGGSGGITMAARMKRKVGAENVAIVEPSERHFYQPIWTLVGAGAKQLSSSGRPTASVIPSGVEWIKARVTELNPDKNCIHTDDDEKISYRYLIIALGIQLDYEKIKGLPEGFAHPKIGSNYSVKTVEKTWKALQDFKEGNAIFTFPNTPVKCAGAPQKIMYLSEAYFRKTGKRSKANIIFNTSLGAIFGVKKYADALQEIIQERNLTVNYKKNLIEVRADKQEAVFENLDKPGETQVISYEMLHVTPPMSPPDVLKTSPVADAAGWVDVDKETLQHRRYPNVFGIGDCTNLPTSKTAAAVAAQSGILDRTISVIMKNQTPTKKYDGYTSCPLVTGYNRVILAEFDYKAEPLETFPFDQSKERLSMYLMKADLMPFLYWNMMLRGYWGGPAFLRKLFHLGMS
UniProt Q9Y295: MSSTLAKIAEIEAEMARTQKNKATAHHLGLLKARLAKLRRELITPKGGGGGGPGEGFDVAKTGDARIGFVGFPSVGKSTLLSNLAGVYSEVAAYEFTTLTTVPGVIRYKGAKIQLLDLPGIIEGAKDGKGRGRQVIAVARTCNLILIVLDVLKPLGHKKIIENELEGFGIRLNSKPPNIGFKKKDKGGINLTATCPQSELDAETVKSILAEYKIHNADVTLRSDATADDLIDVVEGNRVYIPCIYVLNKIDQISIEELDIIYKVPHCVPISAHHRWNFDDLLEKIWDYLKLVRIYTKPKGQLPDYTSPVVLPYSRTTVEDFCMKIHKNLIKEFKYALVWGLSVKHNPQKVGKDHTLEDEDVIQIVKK
UniProt Q9UNZ2: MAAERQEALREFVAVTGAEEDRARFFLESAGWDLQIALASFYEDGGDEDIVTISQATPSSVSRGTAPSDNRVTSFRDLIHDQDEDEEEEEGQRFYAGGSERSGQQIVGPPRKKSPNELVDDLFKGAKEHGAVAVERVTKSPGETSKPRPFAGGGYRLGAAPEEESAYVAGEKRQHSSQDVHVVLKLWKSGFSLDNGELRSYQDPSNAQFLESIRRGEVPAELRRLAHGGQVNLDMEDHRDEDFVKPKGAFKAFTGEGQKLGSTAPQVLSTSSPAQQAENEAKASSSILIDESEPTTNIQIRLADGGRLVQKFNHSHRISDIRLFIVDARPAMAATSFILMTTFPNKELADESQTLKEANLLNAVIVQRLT
UniProt Q9Y3A2: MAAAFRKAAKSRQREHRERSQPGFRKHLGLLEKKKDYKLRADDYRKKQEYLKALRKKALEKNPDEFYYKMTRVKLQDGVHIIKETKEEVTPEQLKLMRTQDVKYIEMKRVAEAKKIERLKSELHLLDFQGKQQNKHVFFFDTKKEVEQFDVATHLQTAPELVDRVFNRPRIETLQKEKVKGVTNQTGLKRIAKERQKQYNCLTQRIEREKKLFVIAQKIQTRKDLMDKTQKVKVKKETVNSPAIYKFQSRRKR
UniProt Q9Y3L5: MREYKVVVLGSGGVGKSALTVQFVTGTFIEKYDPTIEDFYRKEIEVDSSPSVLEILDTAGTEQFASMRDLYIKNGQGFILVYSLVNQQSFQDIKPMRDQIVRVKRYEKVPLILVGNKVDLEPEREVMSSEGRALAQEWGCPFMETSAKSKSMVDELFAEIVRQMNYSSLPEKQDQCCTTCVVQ
UniProt Q9Y223: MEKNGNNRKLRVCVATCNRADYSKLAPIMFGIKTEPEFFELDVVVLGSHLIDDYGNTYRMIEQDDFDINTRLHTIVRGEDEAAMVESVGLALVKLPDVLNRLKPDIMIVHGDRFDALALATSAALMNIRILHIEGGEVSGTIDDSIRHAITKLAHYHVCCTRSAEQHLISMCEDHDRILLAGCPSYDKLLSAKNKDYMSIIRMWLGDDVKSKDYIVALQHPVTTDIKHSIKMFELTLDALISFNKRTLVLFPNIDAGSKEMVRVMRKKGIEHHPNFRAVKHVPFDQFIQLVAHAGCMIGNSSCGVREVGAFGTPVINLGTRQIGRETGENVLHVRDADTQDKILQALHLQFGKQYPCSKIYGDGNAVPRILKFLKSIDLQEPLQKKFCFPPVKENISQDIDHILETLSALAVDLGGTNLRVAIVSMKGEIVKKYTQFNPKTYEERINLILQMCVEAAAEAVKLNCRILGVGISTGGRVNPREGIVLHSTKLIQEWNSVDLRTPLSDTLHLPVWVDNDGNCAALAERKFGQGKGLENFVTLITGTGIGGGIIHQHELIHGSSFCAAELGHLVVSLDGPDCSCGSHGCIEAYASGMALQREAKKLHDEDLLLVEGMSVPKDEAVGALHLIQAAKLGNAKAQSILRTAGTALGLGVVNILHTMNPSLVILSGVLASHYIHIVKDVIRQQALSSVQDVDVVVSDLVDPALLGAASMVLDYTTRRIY
UniProt Q9Y4G6: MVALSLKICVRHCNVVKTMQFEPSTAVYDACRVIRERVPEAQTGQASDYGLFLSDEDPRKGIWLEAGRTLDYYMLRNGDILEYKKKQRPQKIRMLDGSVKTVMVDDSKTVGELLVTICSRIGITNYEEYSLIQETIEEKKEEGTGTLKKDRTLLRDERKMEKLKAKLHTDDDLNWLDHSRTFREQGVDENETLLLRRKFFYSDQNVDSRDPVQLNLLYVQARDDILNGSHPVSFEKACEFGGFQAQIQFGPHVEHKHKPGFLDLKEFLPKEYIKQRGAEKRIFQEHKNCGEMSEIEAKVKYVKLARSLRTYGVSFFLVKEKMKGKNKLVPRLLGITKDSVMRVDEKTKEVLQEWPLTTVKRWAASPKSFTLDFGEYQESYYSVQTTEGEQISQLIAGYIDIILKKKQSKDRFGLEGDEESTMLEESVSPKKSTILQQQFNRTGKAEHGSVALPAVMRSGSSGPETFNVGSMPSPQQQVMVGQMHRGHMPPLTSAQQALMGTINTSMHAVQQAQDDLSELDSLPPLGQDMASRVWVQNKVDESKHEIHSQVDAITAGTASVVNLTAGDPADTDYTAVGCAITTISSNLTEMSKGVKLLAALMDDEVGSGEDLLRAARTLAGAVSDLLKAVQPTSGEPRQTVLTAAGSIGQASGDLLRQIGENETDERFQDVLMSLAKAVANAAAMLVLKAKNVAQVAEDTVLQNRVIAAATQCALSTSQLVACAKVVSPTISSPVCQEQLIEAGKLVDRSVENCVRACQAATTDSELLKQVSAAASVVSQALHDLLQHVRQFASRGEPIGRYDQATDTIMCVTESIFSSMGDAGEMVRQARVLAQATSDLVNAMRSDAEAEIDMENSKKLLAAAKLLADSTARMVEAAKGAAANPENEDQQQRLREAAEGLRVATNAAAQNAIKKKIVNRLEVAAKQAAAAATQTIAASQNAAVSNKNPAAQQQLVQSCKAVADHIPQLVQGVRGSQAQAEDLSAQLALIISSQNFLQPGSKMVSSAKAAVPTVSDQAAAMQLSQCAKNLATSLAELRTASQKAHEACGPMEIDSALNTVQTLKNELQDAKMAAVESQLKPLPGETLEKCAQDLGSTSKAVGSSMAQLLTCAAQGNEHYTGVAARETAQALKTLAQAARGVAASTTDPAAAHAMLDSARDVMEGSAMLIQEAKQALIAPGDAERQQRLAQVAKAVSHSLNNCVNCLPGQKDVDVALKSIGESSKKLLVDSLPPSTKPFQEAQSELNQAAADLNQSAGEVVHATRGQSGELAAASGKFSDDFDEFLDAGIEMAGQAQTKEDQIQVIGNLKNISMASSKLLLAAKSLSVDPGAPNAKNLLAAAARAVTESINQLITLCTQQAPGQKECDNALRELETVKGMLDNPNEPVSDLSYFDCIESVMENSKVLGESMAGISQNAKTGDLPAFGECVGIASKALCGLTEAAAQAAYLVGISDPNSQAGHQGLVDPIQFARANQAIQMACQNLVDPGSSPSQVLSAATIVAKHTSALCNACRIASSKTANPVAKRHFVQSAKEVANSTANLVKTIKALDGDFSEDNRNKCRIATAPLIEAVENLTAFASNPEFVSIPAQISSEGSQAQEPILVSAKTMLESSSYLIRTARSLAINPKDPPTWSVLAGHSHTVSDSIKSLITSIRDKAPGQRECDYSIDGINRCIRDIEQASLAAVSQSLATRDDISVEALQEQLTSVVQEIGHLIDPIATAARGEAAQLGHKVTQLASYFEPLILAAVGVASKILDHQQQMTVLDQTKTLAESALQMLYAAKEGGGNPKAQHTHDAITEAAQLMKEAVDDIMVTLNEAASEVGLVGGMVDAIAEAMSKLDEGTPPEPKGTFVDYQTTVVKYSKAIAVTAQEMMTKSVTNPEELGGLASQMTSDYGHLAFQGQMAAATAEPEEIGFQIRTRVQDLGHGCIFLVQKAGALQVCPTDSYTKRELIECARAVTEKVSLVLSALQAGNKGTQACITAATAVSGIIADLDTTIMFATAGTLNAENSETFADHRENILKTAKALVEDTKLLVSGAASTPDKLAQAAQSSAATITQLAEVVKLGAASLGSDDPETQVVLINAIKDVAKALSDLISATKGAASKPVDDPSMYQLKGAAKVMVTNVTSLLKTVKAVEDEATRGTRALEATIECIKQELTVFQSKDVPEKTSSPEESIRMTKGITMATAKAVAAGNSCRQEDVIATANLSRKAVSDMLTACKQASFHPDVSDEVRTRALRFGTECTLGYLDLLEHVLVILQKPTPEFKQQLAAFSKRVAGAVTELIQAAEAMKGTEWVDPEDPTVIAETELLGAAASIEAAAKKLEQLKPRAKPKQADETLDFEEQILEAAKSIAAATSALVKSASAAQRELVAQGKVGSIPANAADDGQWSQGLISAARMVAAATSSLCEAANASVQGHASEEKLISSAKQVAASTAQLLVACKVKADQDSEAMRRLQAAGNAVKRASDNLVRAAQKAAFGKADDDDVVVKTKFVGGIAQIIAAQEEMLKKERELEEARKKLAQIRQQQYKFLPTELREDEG
UniProt Q9Y6G5, whole entry: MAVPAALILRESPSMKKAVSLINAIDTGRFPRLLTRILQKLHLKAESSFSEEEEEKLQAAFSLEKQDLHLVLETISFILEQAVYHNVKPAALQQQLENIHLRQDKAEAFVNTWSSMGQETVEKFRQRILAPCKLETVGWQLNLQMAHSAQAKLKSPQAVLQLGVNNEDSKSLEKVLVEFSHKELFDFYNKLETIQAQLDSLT
UniProt Q9Y2S2: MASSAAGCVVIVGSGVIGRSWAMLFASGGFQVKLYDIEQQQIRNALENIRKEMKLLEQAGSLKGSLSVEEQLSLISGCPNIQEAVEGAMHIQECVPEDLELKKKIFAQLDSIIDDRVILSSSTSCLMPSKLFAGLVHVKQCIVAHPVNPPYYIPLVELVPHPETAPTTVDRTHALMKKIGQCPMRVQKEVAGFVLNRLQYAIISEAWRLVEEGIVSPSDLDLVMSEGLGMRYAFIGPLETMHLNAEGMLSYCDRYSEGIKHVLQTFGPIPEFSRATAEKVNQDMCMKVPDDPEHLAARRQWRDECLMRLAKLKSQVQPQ
UniProt Q9UNM6: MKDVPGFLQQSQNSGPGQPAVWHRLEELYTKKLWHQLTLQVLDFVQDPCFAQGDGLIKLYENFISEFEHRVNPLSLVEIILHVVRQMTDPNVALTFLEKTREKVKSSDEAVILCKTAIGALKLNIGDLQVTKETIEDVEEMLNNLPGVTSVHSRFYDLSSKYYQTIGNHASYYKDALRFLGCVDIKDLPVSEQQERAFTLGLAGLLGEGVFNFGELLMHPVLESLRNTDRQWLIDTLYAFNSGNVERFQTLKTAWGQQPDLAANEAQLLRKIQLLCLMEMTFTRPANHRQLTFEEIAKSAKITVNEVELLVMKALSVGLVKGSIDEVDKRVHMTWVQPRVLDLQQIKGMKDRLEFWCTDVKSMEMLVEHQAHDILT

Compound: Nc1nc2c(ncn2[C@@H]2O[C@H](COP(=O)(O)OP(=O)(O)OP(=O)(O)O)[C@@H](O)[C@H]2O)c(=O)[nH]1 [guanosine triphosphate]
Test: NP40-soluble protein abundance relative to vehicle (solubility fold change) (ratio); higher = more soluble protein in presence of GTP
Outline: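 Crude Jurkat lysate, prepared by Dounce homogenisation, was exposed to eight concentrations from 0.1 to 10 mM for 10 min at room temperature and then 3 min at 37 °C. Solubilisation used 0.8% NP40 with benzonase for 60 min at 4 °C, followed by ultracentrifugation and TMT labelling of the supernatant for LC-MS/MS. After vsn normalisation of intensities, each value is the fold change against the detergent-processed vehicle within each replicate, across three independent experiments.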

Target	NP40-soluble protein abundance (concentration: 0.1mM)	NP40-soluble protein abundance (concentration: 0.5mM)	NP40-soluble protein abundance (concentration: 1mM)	NP40-soluble protein abundance (concentration: 2mM)	NP40-soluble protein abundance (concentration: 4mM)	NP40-soluble protein abundance (concentration: 6mM)	NP40-soluble protein abundance (concentration: 8mM)	NP40-soluble protein abundance (concentration: 10mM)
CLIC4 (UniProt Q9Y696)	1 ± 0.088	0.929 ± 0.063	0.966 ± 0.1	0.88 ± 0.1	0.976 ± 0.13	0.909 ± 0.1	0.973 ± 0.12	0.866 ± 0.08
UniProt Q9UPN7	0.988 ± 0.018	0.994 ± 0.059	0.976 ± 0.019	1.01 ± 0.073	1.01 ± 0.077	0.962 ± 0.077	0.964 ± 0.034	0.986 ± 0.066
DUSP12 (UniProt Q9UNI6)	1.07 ± 0.074	1.04 ± 0.091	0.956 ± 0.085	0.959 ± 0.1	0.965 ± 0.06	0.905 ± 0.12	0.93 ± 0.029	0.953 ± 0.017
ZNF148 (UniProt Q9UQR1)	0.942 ± 0.011	0.945 ± 0.043	0.934 ± 0.029	0.919 ± 0.037	0.9092 ± 0.0061	0.905 ± 0.026	0.967 ± 0.021	0.944 ± 0.013
UniProt Q9Y6N5	1 ± 0.019	1.02 ± 0.052	0.9346 ± 0.0073	0.954 ± 0.041	0.93 ± 0.015	0.94 ± 0.027	0.898 ± 0.018	0.87 ± 0.047
DRG1 (UniProt Q9Y295)	0.958 ± 0.02	0.968 ± 0.028	0.896 ± 0.035	0.884 ± 0.035	0.964 ± 0.076	0.926 ± 0.044	0.93 ± 0.07	0.882 ± 0.077
UniProt Q9UNZ2 and related entries	0.94 ± 0.067	0.926 ± 0.045	0.955 ± 0.071	0.9 ± 0.078	0.916 ± 0.083	0.909 ± 0.072	0.924 ± 0.067	0.914 ± 0.073
AP4E1 (UniProt Q9UPM8)	1.17 ± 0.024	1.08 ± 0.13	1.14 ± 0.062	1.1 ± 0.062	1.13 ± 0.019	1.06 ± 0.011	1.13 ± 0.025	0.989 ± 0.048
UniProt Q9UPT9 and related entries	1.15 ± 0.23	1.12 ± 0.15	0.994 ± 0.16	1.03 ± 0.16	1.04 ± 0.21	1.08 ± 0.15	1.01 ± 0.13	0.948 ± 0.12
UniProt Q9Y250 and related entries	0.977 ± 0.022	0.947 ± 0.062	1.01 ± 0.017	1.02 ± 0.057	0.977 ± 0.034	1.03 ± 0.018	1.1 ± 0.087	1.09 ± 0.074
UTP11 (UniProt Q9Y3A2)	1.06 ± 0.12	1.08 ± 0.13	1.14 ± 0.047	1.2 ± 0.097	1.32 ± 0.12	1.31 ± 0.11	1.33 ± 0.11	1.51 ± 0.12
UniProt Q9Y2G2 and related entries	0.953 ± 0.066	1 ± 0.064	0.977 ± 0.093	0.9578 ± 0.0016	0.887 ± 0.12	0.906 ± 0.057	1.01 ± 0.037	0.92 ± 0.09
UniProt Q9Y3L5	0.939 ± 0.34	0.939 ± 0.27	0.803 ± 0.13	0.879 ± 0.26	0.873 ± 0.22	0.807 ± 0.15	0.82 ± 0.19	0.959 ± 0.29
UniProt Q9Y3D9 and related entries	1.01 ± 0.17	1.01 ± 0.19	1.61 ± 0.35	1.69 ± 0.093	1.771 ± 0.00083	1.61 ± 0.061	1.49 ± 0.28	1.73 ± 0.19
ZNF330 (UniProt Q9Y3S2)	1.04 ± 0.054	1.01 ± 0.061	0.985 ± 0.072	0.962 ± 0.079	0.992 ± 0.072	0.976 ± 0.085	0.996 ± 0.066	0.953 ± 0.082
NUDC (UniProt Q9Y266)	0.924 ± 0.044	0.938 ± 0.06	0.931 ± 0.058	0.88 ± 0.077	0.852 ± 0.063	0.893 ± 0.076	0.885 ± 0.056	0.872 ± 0.069
UniProt Q9Y223 and related entries	1.09 ± 0.082	1.07 ± 0.082	0.98 ± 0.044	1.01 ± 0.097	1.01 ± 0.083	0.978 ± 0.082	0.931 ± 0.047	0.933 ± 0.043
UniProt Q9Y6M7-13|Q9Y6M7-6|Q9Y6M7-7|Q9Y6M7-9	0.97 ± 0.023	0.953 ± 0.041	0.936 ± 0.049	0.937 ± 0.056	0.951 ± 0.023	1.05 ± 0.051	1.05 ± 0.051	1.05 ± 0.049
TLN2 (UniProt Q9Y4G6)	0.976 ± 0.12	0.966 ± 0.091	1.05 ± 0.17	0.978 ± 0.099	0.913 ± 0.1	0.973 ± 0.075	0.925 ± 0.087	1.02 ± 0.19
UniProt Q9Y4D1 and related entries	0.96 ± 0.013	1.06 ± 0.03	1.02 ± 0.011	1.034 ± 0.0039	1.01 ± 0.027	1.03 ± 0.036	1.03 ± 0.15	0.999 ± 0.12
UniProt Q9Y6G5 and related entries	1.04 ± 0.066	1.03 ± 0.044	1.07 ± 0.076	1.08 ± 0.1	1.09 ± 0.14	1.09 ± 0.1	1.07 ± 0.084	1.09 ± 0.17
UBE2J1 (UniProt Q9Y385)	0.923 ± 0.015	0.896 ± 0.022	0.936 ± 0.056	0.908 ± 0.087	0.91 ± 0.11	0.9 ± 0.13	0.883 ± 0.019	0.883 ± 0.092
UniProt Q9Y2S2 and related entries	1.09 ± 0.12	0.991 ± 0.11	0.974 ± 0.12	0.971 ± 0.11	0.948 ± 0.12	0.922 ± 0.13	0.946 ± 0.15	0.912 ± 0.18
PSMD13 (UniProt Q9UNM6)	1.02 ± 0.061	1.02 ± 0.1	0.999 ± 0.11	1.04 ± 0.17	1.04 ± 0.11	1.04 ± 0.17	0.98 ± 0.1	0.957 ± 0.14
UniProt Q9Y570 and related entries	0.968 ± 0.046	0.973 ± 0.072	0.936 ± 0.063	0.922 ± 0.056	0.914 ± 0.075	0.901 ± 0.064	0.895 ± 0.074	0.886 ± 0.091
UniProt Q9Y5P6 and related entries	0.995 ± 0.015	1 ± 0.015	0.9147 ± 0.008	0.916 ± 0.051	0.914 ± 0.018	0.907 ± 0.01	0.883 ± 0.013	0.874 ± 0.063
UniProt Q9Y680 and related entries	0.972 ± 0.026	0.946 ± 0.06	1.07 ± 0.047	1.02 ± 0.1	0.966 ± 0.047	0.957 ± 0.059	1.03 ± 0.076	0.977 ± 0.043
CAPN7 (UniProt Q9Y6W3)	0.939 ± 0.098	0.993 ± 0.043	0.924 ± 0.094	0.912 ± 0.038	0.905 ± 0.014	0.925 ± 0.083	0.883 ± 0.093	0.954 ± 0.053

Exported in CSV form: entries from further up
Target,NP40-soluble protein abundance (concentration: 0.1mM),NP40-soluble protein abundance (concentration: 0.5mM),NP40-soluble protein abundance (concentration: 1mM),NP40-soluble protein abundance (concentration: 2mM),NP40-soluble protein abundance (concentration: 4mM),NP40-soluble protein abundance (concentration: 6mM),NP40-soluble protein abundance (concentration: 8mM),NP40-soluble protein abundance (concentration: 10mM)
UBE2J1 (UniProt Q9Y385),0.923 ± 0.015,0.896 ± 0.022,0.936 ± 0.056,0.908 ± 0.087,0.91 ± 0.11,0.9 ± 0.13,0.883 ± 0.019,0.883 ± 0.092
UniProt Q9Y2S2 and related entries,1.09 ± 0.12,0.991 ± 0.11,0.974 ± 0.12,0.971 ± 0.11,0.948 ± 0.12,0.922 ± 0.13,0.946 ± 0.15,0.912 ± 0.18
PSMD13 (UniProt Q9UNM6),1.02 ± 0.061,1.02 ± 0.1,0.999 ± 0.11,1.04 ± 0.17,1.04 ± 0.11,1.04 ± 0.17,0.98 ± 0.1,0.957 ± 0.14
UniProt Q9Y570 and related entries,0.968 ± 0.046,0.973 ± 0.072,0.936 ± 0.063,0.922 ± 0.056,0.914 ± 0.075,0.901 ± 0.064,0.895 ± 0.074,0.886 ± 0.091
UniProt Q9Y5P6 and related entries,0.995 ± 0.015,1 ± 0.015,0.9147 ± 0.008,0.916 ± 0.051,0.914 ± 0.018,0.907 ± 0.01,0.883 ± 0.013,0.874 ± 0.063
UniProt Q9Y680 and related entries,0.972 ± 0.026,0.946 ± 0.06,1.07 ± 0.047,1.02 ± 0.1,0.966 ± 0.047,0.957 ± 0.059,1.03 ± 0.076,0.977 ± 0.043
